Assay results taken from the supplement of paper PMC10849652.
The list shows a part of the results.

Protein sequences, listed by entry. Tags and fused reporters are not part of them. Lines headed by an entry give the natural chain unless they say otherwise; changes in a name come on top.
UniProt O94915: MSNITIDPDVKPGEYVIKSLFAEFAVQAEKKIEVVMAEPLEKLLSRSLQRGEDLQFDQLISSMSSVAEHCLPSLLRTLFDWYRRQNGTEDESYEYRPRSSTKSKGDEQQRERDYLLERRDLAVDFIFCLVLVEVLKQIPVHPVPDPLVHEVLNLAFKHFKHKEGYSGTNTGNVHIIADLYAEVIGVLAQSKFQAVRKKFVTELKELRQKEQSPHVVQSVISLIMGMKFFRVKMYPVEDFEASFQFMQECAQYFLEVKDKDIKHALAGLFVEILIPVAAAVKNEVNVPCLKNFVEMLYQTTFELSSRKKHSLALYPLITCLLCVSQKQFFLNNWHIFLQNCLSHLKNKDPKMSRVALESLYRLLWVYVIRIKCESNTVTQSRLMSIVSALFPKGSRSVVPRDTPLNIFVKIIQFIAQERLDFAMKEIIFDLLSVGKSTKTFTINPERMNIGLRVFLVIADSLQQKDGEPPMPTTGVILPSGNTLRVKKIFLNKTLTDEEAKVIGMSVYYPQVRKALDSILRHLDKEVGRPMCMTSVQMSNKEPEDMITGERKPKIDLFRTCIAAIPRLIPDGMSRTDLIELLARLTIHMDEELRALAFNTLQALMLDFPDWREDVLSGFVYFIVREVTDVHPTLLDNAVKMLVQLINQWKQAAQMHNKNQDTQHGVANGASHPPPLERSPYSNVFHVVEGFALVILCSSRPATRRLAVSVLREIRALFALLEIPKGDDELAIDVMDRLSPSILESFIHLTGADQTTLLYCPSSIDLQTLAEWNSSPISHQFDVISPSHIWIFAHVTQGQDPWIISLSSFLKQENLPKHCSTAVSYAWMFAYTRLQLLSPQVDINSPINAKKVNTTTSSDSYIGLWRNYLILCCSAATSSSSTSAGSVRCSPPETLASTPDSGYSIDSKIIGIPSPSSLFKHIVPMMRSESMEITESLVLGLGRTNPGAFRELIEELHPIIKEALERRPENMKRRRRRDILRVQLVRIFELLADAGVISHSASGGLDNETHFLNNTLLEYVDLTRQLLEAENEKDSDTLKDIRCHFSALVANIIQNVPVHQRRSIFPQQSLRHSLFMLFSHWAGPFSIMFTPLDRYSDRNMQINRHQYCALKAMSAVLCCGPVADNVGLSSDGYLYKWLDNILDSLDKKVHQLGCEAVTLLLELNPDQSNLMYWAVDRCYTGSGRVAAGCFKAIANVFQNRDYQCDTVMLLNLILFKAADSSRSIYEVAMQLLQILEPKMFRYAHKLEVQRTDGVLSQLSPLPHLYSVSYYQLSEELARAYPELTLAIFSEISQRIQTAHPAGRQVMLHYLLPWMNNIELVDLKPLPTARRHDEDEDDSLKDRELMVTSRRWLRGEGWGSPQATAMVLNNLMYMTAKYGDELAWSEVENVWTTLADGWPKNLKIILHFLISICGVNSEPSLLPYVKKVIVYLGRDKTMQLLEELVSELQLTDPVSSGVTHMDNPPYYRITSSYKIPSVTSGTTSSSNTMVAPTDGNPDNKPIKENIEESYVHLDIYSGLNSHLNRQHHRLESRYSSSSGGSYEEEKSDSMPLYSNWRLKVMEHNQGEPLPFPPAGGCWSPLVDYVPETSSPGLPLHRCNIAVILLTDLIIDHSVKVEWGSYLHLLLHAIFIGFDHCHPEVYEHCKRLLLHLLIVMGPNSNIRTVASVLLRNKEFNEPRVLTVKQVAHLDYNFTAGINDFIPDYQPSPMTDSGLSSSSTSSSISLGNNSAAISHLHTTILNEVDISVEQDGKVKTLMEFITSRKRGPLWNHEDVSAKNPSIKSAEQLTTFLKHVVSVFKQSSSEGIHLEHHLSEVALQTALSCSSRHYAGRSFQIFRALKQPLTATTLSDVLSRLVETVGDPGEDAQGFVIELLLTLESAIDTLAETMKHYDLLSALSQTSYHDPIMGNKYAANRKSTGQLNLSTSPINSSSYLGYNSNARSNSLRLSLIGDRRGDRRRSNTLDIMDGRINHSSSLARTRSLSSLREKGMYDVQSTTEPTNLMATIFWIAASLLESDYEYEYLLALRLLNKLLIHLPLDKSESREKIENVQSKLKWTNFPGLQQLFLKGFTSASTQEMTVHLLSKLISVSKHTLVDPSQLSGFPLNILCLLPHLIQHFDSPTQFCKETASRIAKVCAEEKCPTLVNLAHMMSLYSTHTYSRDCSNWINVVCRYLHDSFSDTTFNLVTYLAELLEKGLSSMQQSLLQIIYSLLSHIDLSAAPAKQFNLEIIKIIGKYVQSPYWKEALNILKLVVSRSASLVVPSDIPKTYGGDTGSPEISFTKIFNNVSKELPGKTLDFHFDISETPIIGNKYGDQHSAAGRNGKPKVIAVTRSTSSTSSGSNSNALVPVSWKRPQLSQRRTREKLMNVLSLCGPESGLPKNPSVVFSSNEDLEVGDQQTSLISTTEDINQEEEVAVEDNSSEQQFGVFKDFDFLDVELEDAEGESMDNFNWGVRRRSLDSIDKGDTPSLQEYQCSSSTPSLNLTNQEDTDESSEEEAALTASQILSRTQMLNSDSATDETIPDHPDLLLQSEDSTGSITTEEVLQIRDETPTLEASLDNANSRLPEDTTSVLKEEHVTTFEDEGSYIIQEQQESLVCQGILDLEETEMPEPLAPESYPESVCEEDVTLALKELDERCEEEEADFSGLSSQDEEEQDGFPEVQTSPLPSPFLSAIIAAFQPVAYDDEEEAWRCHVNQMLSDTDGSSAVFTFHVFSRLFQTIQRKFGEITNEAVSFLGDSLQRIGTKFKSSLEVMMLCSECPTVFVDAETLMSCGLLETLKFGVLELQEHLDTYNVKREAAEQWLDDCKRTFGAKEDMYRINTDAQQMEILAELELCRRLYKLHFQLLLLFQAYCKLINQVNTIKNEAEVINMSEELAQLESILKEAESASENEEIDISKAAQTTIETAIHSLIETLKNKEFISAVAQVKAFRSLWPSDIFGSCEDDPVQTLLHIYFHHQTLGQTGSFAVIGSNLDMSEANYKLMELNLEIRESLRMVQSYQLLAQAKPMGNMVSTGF
UniProt Q96AE4: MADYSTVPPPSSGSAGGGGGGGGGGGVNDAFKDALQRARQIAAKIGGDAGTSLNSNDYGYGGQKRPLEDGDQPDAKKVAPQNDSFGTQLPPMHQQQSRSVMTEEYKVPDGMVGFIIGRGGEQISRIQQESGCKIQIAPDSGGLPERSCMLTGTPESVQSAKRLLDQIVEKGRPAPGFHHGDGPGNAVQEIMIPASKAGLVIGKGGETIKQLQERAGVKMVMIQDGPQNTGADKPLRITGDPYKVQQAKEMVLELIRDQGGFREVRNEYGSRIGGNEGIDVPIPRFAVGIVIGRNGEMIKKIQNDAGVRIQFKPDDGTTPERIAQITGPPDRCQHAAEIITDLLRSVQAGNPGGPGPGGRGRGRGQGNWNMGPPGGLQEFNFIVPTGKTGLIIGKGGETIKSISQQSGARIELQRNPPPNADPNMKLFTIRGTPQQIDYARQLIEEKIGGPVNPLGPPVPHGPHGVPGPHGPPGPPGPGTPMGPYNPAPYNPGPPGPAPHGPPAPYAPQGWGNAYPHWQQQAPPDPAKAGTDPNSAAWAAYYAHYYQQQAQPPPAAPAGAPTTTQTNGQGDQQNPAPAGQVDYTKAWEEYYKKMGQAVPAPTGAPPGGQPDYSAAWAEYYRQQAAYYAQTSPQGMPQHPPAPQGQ
UniProt Q01415: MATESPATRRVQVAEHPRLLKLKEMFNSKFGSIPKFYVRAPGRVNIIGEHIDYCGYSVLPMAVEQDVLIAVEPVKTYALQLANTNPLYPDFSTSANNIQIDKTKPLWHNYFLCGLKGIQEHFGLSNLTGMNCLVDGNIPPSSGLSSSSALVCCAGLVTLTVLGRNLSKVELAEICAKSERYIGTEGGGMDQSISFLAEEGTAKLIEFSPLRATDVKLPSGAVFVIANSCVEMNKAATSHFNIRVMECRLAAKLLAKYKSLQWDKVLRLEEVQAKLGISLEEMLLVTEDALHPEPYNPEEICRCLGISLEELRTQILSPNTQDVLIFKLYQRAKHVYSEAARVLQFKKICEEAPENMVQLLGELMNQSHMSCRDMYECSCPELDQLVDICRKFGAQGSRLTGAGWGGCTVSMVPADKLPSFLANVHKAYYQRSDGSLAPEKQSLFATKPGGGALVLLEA
UniProt P34059: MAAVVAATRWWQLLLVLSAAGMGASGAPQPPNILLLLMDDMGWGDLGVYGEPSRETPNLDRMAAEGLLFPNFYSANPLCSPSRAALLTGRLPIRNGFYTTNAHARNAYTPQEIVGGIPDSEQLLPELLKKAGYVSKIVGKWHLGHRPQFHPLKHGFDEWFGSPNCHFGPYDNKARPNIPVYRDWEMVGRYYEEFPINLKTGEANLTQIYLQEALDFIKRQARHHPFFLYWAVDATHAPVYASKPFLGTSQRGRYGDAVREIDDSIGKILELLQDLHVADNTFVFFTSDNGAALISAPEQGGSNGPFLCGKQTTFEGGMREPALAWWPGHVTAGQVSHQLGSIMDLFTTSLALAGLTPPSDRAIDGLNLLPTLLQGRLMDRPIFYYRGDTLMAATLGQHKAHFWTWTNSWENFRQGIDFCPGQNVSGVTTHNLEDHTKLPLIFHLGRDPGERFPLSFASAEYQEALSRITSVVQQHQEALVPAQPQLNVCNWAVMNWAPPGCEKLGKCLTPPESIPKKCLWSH
UniProt Q9UN86: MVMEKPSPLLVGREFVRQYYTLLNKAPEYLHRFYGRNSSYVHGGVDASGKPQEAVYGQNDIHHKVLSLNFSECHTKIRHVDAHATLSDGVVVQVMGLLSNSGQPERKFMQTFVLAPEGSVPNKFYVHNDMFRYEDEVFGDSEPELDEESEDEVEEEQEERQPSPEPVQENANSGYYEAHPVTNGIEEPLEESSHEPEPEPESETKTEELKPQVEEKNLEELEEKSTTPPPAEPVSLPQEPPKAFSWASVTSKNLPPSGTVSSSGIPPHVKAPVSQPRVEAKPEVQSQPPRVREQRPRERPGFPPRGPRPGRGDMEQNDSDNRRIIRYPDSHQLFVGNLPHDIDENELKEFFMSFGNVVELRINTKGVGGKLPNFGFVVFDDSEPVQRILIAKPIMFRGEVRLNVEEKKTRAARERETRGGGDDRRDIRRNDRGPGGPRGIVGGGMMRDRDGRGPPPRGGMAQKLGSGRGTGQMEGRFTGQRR
UniProt P41250: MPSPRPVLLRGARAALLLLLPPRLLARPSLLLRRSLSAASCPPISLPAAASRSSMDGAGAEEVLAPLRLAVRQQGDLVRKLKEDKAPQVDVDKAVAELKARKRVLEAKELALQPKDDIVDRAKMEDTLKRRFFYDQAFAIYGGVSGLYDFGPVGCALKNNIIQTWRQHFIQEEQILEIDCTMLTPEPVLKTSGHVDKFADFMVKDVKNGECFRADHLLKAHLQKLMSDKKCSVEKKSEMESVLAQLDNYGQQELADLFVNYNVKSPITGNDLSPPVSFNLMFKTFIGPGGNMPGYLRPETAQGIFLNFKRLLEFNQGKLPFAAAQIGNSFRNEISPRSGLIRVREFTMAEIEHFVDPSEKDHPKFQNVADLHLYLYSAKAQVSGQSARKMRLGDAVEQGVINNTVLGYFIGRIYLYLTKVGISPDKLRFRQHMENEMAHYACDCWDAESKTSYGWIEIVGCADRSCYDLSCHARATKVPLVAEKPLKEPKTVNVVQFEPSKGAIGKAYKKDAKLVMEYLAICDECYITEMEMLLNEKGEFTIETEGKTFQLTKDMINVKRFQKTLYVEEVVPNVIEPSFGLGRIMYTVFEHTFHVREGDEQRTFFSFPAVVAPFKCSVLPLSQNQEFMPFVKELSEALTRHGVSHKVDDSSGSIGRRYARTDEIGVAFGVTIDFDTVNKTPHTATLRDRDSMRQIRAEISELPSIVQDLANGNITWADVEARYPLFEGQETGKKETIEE
UniProt P35637: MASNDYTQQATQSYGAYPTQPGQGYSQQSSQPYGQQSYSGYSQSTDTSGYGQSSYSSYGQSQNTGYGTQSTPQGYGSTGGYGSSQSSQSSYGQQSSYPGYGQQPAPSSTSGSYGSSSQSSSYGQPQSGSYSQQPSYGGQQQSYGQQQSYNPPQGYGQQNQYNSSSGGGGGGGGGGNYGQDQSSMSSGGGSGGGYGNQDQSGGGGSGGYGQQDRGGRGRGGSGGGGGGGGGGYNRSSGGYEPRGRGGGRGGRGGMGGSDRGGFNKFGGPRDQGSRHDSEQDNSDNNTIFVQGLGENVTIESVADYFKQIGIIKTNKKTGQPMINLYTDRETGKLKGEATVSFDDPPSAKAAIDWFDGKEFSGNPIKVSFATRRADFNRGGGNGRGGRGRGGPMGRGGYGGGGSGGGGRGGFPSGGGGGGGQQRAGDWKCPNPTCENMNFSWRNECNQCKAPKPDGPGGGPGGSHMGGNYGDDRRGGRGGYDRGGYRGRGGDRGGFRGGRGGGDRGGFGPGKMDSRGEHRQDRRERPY

Tests used:
Experiment in all cases: log2 fold change, soluble protein after heating vs DMSO (PISA); higher = thermal stabilisation; K562 lysate, 10 uM; active = over 0.2 and 3.5 SD of the protein, either way, in both replicates (recomputed)
[1] = compound: C1=CC=C(C=C1)[C@H](COC2=CC3=C(C=C2)NC(=O)N3)NC(=O)C4=CC=CN(C4=O)CC5=CC(=C(C=C5)F)F
In short: (§1)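 Log-two fold change in thermal stability relative to solvent controls is reported from duplicates. For each sample, crude K562 extract from dounce-homogenised pellets in PBS pH 7.4 with 1 mM MgCl2, at 1 mg/mL protein, was treated with 10 μM compound for 30 min. Aliquots heated for 3 min across 48°C-58°C were pooled, brought to 0.5% NP-40 at 4°C and cleared at 21,000xg for 90 min. The supernatant was quantified by TMTpro 16plex LC-MS/MS with channel sums equalised.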

[2] = compound: CC1=C(SC2=C1C(=N[C@H](C3=NN=C(N32)C)CC(=O)N)C4=CC=C(C=C4)Cl)C
In short: as §1

[3] = compound: CC1=C2C(=CC=C1)N=C(N(C2=O)C3=CC=CC=C3C)CN4C=NC5=C(N=CN=C54)N
In short: as §1

[4] = compound: Cc1sc2c(c1C)C(c1ccc(Cl)cc1)=N[C@@H](CC(=O)OC(C)(C)C)c1nnc(C)n1-2
In short: as §1

[5] = compound: c1ccc([C@@H]2C[C@H]2NC2CCNCC2)cc1
In short: as §1

Measured: log2 fold change

FRYL (UniProt O94915)
inactive: [1] -0.032 | [2] 0 | [3] 0.008 | [4] 0.013 | [5] 0.018

FUBP1 (UniProt Q96AE4)
inactive: [1] 0.069 | [2] 0.143 | [3] 0.028 | [4] 0.049 | [5] 0.003

FRMD8 (UniProt Q9BZ67)
inactive: [1] 0.11 | [2] -0.124 | [3] 0.016 | [4] 0.198 | [5] -0.042

GALK2 (UniProt Q01415)
inactive: [1] 0.012 | [2] -0.005 | [3] 0.026 | [4] 0.003 | [5] -0.046

GALNS (UniProt P34059)
inactive: [1] 0.03 | [2] 0.018 | [3] -0.005 | [4] -0.008 | [5] -0.013

GDI2 (UniProt Q5SX86)
inactive: [1] 0.117 | [2] -0.008 | [3] -0.199 | [4] -0.012 | [5] 0.254

G3BP2 (UniProt Q9UN86)
inactive: [1] 0.002 | [2] 0.02 | [3] -0.016 | [4] -0.021 | [5] 0.003

Two successive records out of the list so far, for reference:
FRYL (UniProt O94915)
inactive: [1] -0.032 | [2] 0 | [3] 0.008 | [4] 0.013 | [5] 0.018

FUBP1 (UniProt Q96AE4)
inactive: [1] 0.069 | [2] 0.143 | [3] 0.028 | [4] 0.049 | [5] 0.003

Later entries

GARS1 (UniProt P41250)
inactive: [1] 0.01 | [2] 0.01 | [3] 0.002 | [4] -0.014 | [5] 0.002

FUS (UniProt P35637)
inactive: [1] -0.002 | [2] -0.012 | [3] -0.038 | [4] 0.091 | [5] -0.029
